At least one structure is not confirmed: it was looked up by name or label, or the drawing left a doubt.
Tested on: clozapine binding site
Details: extracts from Experiment 5; tested only in apple and strawberry

CN1CCN(C2=Nc3cc(Cl)ccc3Nc3ccccc32)CC1 [Clozapine, clozapine]
specific binding of extract containing the infused agent: demonstrated specific binding

Reference: patent US6660310B2, “Method to infuse fresh fruits and vegetables with an agent” (American Moxie LLC, priority 2000, dated 2003)
